# This is one part of the list. Only hits are listed; about a third recur on repeated control peptides.
# Protein sequences, listed by entry. Tags and fused reporters are not part of them.
# STAT3, P40763, UniProt P40763, whole entry: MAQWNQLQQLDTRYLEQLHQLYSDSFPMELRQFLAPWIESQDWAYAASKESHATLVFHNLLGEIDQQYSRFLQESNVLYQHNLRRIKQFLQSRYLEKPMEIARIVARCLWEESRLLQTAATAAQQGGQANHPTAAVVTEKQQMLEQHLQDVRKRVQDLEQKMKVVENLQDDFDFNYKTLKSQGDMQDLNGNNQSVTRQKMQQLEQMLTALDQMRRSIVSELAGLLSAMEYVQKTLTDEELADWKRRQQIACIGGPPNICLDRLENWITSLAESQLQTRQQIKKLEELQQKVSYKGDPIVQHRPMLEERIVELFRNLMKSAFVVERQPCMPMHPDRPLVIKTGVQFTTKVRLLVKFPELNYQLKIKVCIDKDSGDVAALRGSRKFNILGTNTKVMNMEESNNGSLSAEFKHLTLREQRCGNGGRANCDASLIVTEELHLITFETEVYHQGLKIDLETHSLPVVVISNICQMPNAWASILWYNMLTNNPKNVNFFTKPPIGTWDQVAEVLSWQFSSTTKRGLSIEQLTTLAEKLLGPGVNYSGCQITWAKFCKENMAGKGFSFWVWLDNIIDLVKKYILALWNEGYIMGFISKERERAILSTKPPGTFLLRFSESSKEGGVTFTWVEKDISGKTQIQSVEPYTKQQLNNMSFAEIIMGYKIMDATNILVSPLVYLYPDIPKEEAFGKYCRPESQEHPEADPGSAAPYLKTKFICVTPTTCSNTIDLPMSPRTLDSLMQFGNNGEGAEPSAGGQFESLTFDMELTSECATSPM
# EIF3B, P55884, UniProt P55884, whole entry: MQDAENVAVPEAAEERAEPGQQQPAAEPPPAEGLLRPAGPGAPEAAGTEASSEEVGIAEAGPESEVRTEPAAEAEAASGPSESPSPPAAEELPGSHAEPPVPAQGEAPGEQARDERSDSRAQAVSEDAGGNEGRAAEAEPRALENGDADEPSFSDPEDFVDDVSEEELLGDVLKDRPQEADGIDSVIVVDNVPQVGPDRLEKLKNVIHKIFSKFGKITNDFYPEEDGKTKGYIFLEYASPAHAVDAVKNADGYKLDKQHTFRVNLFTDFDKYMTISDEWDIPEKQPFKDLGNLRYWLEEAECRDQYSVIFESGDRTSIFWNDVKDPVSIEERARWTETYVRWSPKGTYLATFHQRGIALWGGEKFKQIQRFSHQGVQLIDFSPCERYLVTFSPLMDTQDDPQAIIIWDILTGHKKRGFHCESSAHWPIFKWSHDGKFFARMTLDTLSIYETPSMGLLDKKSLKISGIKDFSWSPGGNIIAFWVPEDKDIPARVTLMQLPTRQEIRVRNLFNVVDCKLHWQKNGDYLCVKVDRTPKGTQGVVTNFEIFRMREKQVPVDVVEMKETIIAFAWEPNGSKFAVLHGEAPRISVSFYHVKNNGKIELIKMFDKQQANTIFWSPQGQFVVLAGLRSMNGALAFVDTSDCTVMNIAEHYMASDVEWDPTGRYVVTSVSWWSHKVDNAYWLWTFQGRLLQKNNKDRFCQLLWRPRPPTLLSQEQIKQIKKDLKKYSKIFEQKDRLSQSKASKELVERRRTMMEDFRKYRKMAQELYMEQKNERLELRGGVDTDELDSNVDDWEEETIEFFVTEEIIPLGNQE
# RGPD5, Q99666, UniProt Q99666, whole entry: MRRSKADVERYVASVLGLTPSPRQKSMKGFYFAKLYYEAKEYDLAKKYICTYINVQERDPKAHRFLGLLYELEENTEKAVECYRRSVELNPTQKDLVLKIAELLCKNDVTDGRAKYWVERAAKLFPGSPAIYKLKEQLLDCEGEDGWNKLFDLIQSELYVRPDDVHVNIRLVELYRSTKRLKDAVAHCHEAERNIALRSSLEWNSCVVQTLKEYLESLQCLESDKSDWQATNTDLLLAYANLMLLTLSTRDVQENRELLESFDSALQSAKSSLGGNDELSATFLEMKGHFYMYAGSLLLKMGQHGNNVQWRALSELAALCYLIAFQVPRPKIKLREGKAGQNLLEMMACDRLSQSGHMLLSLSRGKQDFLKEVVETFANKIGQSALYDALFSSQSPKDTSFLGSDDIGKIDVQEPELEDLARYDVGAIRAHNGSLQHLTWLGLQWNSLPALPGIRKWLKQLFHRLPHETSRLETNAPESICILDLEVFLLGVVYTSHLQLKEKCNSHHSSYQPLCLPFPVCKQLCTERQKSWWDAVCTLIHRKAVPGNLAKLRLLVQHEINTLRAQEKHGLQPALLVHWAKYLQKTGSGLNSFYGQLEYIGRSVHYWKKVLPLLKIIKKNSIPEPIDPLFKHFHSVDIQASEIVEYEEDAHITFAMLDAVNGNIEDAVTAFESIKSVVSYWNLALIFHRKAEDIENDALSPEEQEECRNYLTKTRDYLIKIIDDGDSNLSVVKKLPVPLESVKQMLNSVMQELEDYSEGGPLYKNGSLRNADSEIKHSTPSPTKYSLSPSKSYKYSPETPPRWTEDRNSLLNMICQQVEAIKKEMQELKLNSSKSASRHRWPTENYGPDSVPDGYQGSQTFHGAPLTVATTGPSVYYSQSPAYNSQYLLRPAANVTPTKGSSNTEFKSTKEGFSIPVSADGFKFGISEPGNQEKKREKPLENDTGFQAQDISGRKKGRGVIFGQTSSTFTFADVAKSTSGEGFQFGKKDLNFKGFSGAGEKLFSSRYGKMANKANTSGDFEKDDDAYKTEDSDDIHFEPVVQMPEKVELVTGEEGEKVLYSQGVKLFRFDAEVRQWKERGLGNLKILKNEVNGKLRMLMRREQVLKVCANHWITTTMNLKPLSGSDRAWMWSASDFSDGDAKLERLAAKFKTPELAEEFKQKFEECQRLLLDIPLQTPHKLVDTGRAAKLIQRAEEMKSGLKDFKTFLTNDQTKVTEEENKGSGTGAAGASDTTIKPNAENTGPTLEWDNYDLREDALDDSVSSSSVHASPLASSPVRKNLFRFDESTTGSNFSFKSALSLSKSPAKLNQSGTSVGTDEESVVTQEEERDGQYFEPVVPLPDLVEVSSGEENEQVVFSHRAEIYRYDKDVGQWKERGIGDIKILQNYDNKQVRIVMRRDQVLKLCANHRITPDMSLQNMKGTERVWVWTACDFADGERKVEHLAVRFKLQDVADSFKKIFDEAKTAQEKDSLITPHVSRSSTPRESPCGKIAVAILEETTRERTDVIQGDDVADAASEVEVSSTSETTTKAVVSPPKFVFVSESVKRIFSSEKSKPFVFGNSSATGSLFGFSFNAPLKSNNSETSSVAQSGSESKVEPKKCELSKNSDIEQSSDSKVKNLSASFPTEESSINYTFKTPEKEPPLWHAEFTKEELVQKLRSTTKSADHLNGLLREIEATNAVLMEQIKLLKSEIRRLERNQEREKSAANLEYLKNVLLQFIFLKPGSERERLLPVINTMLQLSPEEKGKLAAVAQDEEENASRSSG
# PSMD1, Q99460, UniProt Q99460, whole entry: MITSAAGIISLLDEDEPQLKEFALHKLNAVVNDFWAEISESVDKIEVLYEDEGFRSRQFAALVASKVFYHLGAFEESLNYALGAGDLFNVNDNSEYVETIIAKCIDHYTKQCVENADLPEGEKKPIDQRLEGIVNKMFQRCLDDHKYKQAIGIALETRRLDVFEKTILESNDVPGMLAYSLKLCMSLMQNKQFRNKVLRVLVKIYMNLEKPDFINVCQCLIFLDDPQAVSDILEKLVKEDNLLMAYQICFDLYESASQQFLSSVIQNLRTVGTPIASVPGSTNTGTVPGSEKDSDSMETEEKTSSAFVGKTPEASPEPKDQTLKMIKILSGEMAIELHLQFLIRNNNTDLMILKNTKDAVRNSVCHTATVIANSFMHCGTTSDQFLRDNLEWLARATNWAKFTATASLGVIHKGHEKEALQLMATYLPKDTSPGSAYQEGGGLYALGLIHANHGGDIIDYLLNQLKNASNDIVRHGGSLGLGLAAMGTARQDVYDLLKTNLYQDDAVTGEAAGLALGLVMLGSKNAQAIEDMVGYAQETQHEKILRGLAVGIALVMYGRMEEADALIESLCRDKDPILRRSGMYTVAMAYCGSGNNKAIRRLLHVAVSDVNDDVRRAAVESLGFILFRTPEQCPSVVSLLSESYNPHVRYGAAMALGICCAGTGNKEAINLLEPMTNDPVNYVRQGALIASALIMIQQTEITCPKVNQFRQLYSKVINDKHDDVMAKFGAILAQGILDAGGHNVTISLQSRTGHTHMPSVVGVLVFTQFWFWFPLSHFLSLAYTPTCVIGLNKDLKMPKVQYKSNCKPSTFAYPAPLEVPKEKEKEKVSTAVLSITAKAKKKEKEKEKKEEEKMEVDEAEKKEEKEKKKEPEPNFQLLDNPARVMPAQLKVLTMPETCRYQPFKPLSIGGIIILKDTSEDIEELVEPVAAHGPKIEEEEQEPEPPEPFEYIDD
# RFC2, P35250, UniProt P35250, whole entry: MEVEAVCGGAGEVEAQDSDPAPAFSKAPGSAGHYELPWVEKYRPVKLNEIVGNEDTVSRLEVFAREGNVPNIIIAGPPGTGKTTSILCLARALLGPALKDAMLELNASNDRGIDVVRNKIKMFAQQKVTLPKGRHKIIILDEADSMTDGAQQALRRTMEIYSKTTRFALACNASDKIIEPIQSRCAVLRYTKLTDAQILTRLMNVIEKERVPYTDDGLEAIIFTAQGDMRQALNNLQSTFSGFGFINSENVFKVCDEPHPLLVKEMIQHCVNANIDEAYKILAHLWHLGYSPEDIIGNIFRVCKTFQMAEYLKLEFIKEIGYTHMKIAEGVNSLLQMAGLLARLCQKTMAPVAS
# XPO1, O14980, UniProt O14980, whole entry: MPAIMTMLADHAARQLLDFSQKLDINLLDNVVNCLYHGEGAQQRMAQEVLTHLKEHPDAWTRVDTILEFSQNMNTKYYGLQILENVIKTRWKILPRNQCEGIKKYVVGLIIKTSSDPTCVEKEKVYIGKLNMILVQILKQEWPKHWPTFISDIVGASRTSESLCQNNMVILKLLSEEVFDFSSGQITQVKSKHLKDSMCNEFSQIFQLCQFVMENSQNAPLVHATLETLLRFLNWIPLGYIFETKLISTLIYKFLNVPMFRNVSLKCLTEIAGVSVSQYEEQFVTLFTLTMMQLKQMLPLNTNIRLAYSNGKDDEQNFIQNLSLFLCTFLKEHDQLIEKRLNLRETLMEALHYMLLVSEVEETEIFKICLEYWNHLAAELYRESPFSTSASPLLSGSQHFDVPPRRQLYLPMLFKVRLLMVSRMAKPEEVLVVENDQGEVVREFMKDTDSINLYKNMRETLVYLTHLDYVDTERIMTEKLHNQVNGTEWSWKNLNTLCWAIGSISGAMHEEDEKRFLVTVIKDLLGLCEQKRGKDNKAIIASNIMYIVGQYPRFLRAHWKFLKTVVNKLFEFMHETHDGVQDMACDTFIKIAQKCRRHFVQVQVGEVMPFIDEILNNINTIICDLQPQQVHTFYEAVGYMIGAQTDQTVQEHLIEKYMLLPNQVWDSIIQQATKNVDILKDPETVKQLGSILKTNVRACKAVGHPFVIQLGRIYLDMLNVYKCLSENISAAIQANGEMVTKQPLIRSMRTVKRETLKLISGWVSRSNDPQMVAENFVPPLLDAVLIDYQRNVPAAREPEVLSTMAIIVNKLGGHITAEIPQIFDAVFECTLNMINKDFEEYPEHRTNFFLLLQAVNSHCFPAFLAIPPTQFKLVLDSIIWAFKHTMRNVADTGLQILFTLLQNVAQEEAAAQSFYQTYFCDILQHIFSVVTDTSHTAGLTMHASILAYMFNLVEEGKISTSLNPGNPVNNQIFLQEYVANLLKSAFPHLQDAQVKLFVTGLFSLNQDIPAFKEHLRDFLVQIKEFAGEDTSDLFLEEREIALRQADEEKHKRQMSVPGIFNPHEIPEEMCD
# NDUFV1, P49821, UniProt P49821, whole entry: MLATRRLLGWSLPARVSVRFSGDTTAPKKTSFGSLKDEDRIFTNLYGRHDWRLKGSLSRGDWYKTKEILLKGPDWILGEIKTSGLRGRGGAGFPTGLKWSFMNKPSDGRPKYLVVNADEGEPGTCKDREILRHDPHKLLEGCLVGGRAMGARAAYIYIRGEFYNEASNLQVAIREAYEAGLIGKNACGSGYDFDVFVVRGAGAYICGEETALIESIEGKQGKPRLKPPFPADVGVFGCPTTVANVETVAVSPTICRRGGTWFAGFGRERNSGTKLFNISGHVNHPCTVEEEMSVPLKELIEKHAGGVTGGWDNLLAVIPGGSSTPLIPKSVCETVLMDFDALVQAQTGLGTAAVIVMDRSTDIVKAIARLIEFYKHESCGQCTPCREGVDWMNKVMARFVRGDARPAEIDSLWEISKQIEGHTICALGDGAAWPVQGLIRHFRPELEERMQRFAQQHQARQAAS
# PFDN6, O15212, UniProt O15212, whole entry: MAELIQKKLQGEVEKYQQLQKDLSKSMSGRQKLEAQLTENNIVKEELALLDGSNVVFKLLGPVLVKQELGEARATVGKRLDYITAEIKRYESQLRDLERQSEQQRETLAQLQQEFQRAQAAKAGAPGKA
# RAB7A, P51149, UniProt P51149, whole entry: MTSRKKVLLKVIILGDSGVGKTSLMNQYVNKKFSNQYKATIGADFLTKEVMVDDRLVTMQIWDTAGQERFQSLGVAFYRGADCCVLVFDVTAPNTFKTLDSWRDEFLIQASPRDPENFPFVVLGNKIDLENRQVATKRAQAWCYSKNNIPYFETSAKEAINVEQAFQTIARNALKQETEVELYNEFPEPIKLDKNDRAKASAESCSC
# Experiments:
# Test in all cases: PRISMA enrichment of interactor (LFQ) in peptide spot vs all other peptide spots (log2 fold change); higher = stronger / more specific binding of the interactor to the peptide
# [1] = target: COA7, Q96BR5
# Description: (§1)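 PRISMA: 15-aa overlapping tiles (offset 8 aa) of 60 microproteins, plus SOS1/GLUT1 control peptides, were spot-synthesized on cellulose membranes in triplicate. Membranes were incubated with benzonase-treated HEK293T lysate, and bound proteins were identified by LC-MS/MS with LFQ. Enrichment is the log2 fold change of each protein in one spot versus all other spots. Only interactors passing the significance cutoff are listed.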
# [2] = target: COPE, O14579
# Description: as §1
# [3] = target: DDX50, Q9BQ39
# Description: as §1
# [4] = target: FOXK1, P85037
# Description: as §1
# [5] = target: HNRNPAB, Q99729
# Description: as §1
# [6] = target: HNRNPR, O43390
# Description: as §1
# [7] = target: KIF2C, Q99661
# Description: as §1
# [8] = target: MCRIP1, C9JLW8
# Description: as §1
# [9] = target: MFAP1, P55081
# Description: as §1
# [10] = target: MSH6, P52701
# Description: as §1
# [11] = target: ORC2, Q13416
# Description: as §1
# [12] = target: PCYT1A, P49585
# Description: as §1
# [13] = target: PDAP1, Q13442
# Description: as §1
# [14] = target: PELP1, Q8IZL8
# Description: as §1
# [15] = target: PUM1, Q14671
# Description: as §1
# [16] = target: RAB3GAP2, Q9H2M9
# Description: as §1
# [17] = target: SMC1A, Q14683
# Description: as §1
# [18] = target: SRSF6, Q13247
# Description: as §1
# [19] = target: TALDO1, P37837
# Description: as §1
# [20] = target: THRAP3, Q9Y2W1
# Description: as §1
# [21] = target: TP53I11, O14683
# Description: as §1
# [22] = target: TRMT112, Q9UI30
# Description: as §1
# [23] = target: ZNF768, Q9H5H4
# Description: as §1
# [24] = target: COX6C, P09669
# Description: as §1
# [25] = target: GNL3L, Q9NVN8
# Description: as §1
# [26] = target: FARSA, Q9Y285
# Description: as §1
# [27] = target: HMGA1, P17096
# Description: as §1
# [28] = target: L2HGDH, Q9H9P8
# Description: as §1
# [29] = target: MRPS15, P82914
# Description: as §1
# [30] = target: MYO1D, O94832
# Description: as §1
# [31] = target: PABPN1, Q86U42
# Description: as §1
# [32] = target: PIGK, Q92643
# Description: as §1
# [33] = target: SPTY2D1, Q68D10
# Description: as §1
# [34] = target: STAT3, P40763
# Description: as §1
# [35] = target: CTU1, Q7Z7A3
# Description: as §1
# [36] = target: DDX28, Q9NUL7
# Description: as §1
# [37] = target: EIF3B, P55884
# Description: as §1
# [38] = target: FAM133B, Q5BKY9
# Description: as §1
# [39] = target: FAM98B, Q52LJ0
# Description: as §1
# [40] = target: PRPF3, O43395
# Description: as §1
# [41] = target: PSMB6, P28072
# Description: as §1
# [42] = target: RBM38, Q9H0Z9
# Description: as §1
# [43] = target: RBMS1, P29558
# Description: as §1
# [44] = target: RGPD5, Q99666
# Description: as §1
# [45] = target: SNX2, O60749
# Description: as §1
# [46] = target: SNX27, Q96L92
# Description: as §1
# [47] = target: SRPK1, Q96SB4
# Description: as §1
# [48] = target: TIMM44, O43615
# Description: as §1
# [49] = target: CST4, P01036
# Description: as §1
# [50] = target: LSM14A, Q8ND56
# Description: as §1
# [51] = target: MAP4K4, O95819
# Description: as §1
# [52] = target: MGST1, P10620
# Description: as §1
# [53] = target: MRPS18B, Q9Y676
# Description: as §1
# [54] = target: NUB1, Q9Y5A7
# Description: as §1
# [55] = target: NUBP2, Q9Y5Y2
# Description: as §1
# [56] = target: POLR2B, P30876
# Description: as §1
# [57] = substrate: PPIB, P23284
# Description: as §1
# [58] = target: PSMD1, Q99460
# Description: as §1
# [59] = target: RFC2, P35250
# Description: as §1
# [60] = target: XPO1, O14980
# Description: as §1
# [61] = target: DDX42, Q86XP3
# Description: as §1
# [62] = target: GATAD1, Q8WUU5
# Description: as §1
# [63] = target: MRPL27, Q9P0M9
# Description: as §1
# [64] = target: NAA15, Q9BXJ9
# Description: as §1
# [65] = target: NAP1L1, P55209
# Description: as §1
# [66] = target: OLA1, Q9NTK5
# Description: as §1
# [67] = target: DAP3, P51398
# Description: as §1
# [68] = target: DDX5, P17844
# Description: as §1
# [69] = target: GMNN, O75496
# Description: as §1
# [70] = target: GNPDA1, P46926
# Description: as §1
# [71] = target: MTX1, Q13505
# Description: as §1
# [72] = target: NDUFV1, P49821
# Description: as §1
# [73] = target: PDCD5, O14737
# Description: as §1
# [74] = target: PFDN6, O15212
# Description: as §1
# [75] = target: RAB7A, P51149
# Description: as §1
# [76] = target: SEC63, Q9UGP8
# Description: as §1
# [77] = target: STRIP1, Q5VSL9
# Description: as §1
# [78] = target: COPA, P53621
# Description: as §1
# [79] = target: NUP160, Q12769
# Description: as §1
# [80] = target: PAICS, P22234
# Description: as §1
# [81] = target: RPS17, P08708
# Description: as §1
# [82] = target: CYB5R3, P00387
# Description: as §1
# [83] = target: ECD, O95905
# Description: as §1
# [84] = target: FRYL, O94915
# Description: as §1
# [85] = target: PRDX2, P32119
# Description: as §1
binder,measurement,setting,value
TMHWNDTRPAHFRIL,PRISMA enrichment of interactor (log2),[1],7.76
same,PRISMA enrichment of interactor (log2),[2],5.08
same,PRISMA enrichment of interactor (log2),[3],5.28
same,PRISMA enrichment of interactor (log2),[4],8.3
same,PRISMA enrichment of interactor (log2),[5],4.8
same,PRISMA enrichment of interactor (log2),[6],6.34
same,PRISMA enrichment of interactor (log2),[7],5.58
same,PRISMA enrichment of interactor (log2),[8],4.73
same,PRISMA enrichment of interactor (log2),[9],6.29
same,PRISMA enrichment of interactor (log2),[10],5.98
same,PRISMA enrichment of interactor (log2),[11],4.84
same,PRISMA enrichment of interactor (log2),[12],5.34
same,PRISMA enrichment of interactor (log2),[13],5.81
same,PRISMA enrichment of interactor (log2),[14],6.86
same,PRISMA enrichment of interactor (log2),[15],5.54
same,PRISMA enrichment of interactor (log2),[16],5.87
same,PRISMA enrichment of interactor (log2),[17],5.95
same,PRISMA enrichment of interactor (log2),[18],5.82
same,PRISMA enrichment of interactor (log2),[19],5.56
same,PRISMA enrichment of interactor (log2),[20],4.93
same,PRISMA enrichment of interactor (log2),[21],7.9
same,PRISMA enrichment of interactor (log2),[22],6.5
same,PRISMA enrichment of interactor (log2),[23],6.87
KPLTPKAKMPKHWSS [NAV2-AS2_2],PRISMA enrichment of interactor (log2),[24],5.56
same,PRISMA enrichment of interactor (log2),[25],7.14
LTTSVRKKVECGDGE [RP11-12K22.1],PRISMA enrichment of interactor (log2),[2],5.4
same,PRISMA enrichment of interactor (log2),[26],5.01
same,PRISMA enrichment of interactor (log2),[27],5.21
same,PRISMA enrichment of interactor (log2),[28],4.66
same,PRISMA enrichment of interactor (log2),[29],5.93
same,PRISMA enrichment of interactor (log2),[30],4.47
same,PRISMA enrichment of interactor (log2),[31],6.13
same,PRISMA enrichment of interactor (log2),[32],4.66
same,PRISMA enrichment of interactor (log2),[33],5.33
same,PRISMA enrichment of interactor (log2),[34],4.52
HCHSYRLSSLEGAAG [PEX2],PRISMA enrichment of interactor (log2),[35],5.37
same,PRISMA enrichment of interactor (log2),[36],6.74
same,PRISMA enrichment of interactor (log2),[37],4.6
same,PRISMA enrichment of interactor (log2),[38],4.23
same,PRISMA enrichment of interactor (log2),[39],6.31
same,PRISMA enrichment of interactor (log2),[40],4.75
same,PRISMA enrichment of interactor (log2),[41],4.16
same,PRISMA enrichment of interactor (log2),[42],5.15
same,PRISMA enrichment of interactor (log2),[43],4.49
same,PRISMA enrichment of interactor (log2),[44],5.78
same,PRISMA enrichment of interactor (log2),[45],5.84
same,PRISMA enrichment of interactor (log2),[46],4.34
same,PRISMA enrichment of interactor (log2),[47],4.57
same,PRISMA enrichment of interactor (log2),[48],4.31
AFPCAALGETHTDRG [LINC00881_2],PRISMA enrichment of interactor (log2),[49],5.81
same,PRISMA enrichment of interactor (log2),[50],5.44
same,PRISMA enrichment of interactor (log2),[51],4.87
same,PRISMA enrichment of interactor (log2),[52],3.79
same,PRISMA enrichment of interactor (log2),[53],3.97
same,PRISMA enrichment of interactor (log2),[54],4.64
same,PRISMA enrichment of interactor (log2),[55],8.3
same,PRISMA enrichment of interactor (log2),[56],9.31
same,PRISMA enrichment of interactor (log2),[57],5.37
same,PRISMA enrichment of interactor (log2),[58],9.54
same,PRISMA enrichment of interactor (log2),[59],6.33
same,PRISMA enrichment of interactor (log2),[60],5.65
RLRRRYLDWRKRRLQ [MTLN],PRISMA enrichment of interactor (log2),[24],6.46
same,PRISMA enrichment of interactor (log2),[61],5.8
same,PRISMA enrichment of interactor (log2),[39],5.87
same,PRISMA enrichment of interactor (log2),[62],4.57
same,PRISMA enrichment of interactor (log2),[63],6.91
same,PRISMA enrichment of interactor (log2),[64],6.95
same,PRISMA enrichment of interactor (log2),[65],5.43
same,PRISMA enrichment of interactor (log2),[66],4.53
AGISFIGVHLGTYFL [MKKS_2],PRISMA enrichment of interactor (log2),[67],6.05
same,PRISMA enrichment of interactor (log2),[68],4.95
same,PRISMA enrichment of interactor (log2),[69],4.39
same,PRISMA enrichment of interactor (log2),[70],4.83
same,PRISMA enrichment of interactor (log2),[71],4.04
same,PRISMA enrichment of interactor (log2),[72],5.52
same,PRISMA enrichment of interactor (log2),[73],4.71
same,PRISMA enrichment of interactor (log2),[74],4.24
same,PRISMA enrichment of interactor (log2),[75],5.51
same,PRISMA enrichment of interactor (log2),[76],5.07
same,PRISMA enrichment of interactor (log2),[77],3.82
SYSLDVHGGRRTAAG,PRISMA enrichment of interactor (log2),[78],4.97
same,PRISMA enrichment of interactor (log2),[79],5.08
same,PRISMA enrichment of interactor (log2),[80],5.87
same,PRISMA enrichment of interactor (log2),[81],5.91
VKQRVLFVEKKKIRS [MRPL33],PRISMA enrichment of interactor (log2),[82],4.53
same,PRISMA enrichment of interactor (log2),[83],4.4
same,PRISMA enrichment of interactor (log2),[84],4.17
same,PRISMA enrichment of interactor (log2),[85],5.56

# An excerpt of these results, bar-delimited.
binder | measurement | setting | value
TMHWNDTRPAHFRIL | PRISMA enrichment of interactor (log2) | [19] | 5.56
RLRRRYLDWRKRRLQ [MTLN] | PRISMA enrichment of interactor (log2) | [62] | 4.57
AGISFIGVHLGTYFL [MKKS_2] | PRISMA enrichment of interactor (log2) | [68] | 4.95
VKQRVLFVEKKKIRS [MRPL33] | PRISMA enrichment of interactor (log2) | [82] | 4.53

# Reference: the supplement of paper PMC10032668
